Results: PubChem BioAssay AID587 (National Center for Advancing Translational Sciences (NCATS), 2007)
Hit rate of the full screen: of about 59,000 compounds, about 35 (0.06%) were called active. This list was built around the results that the source calls inconclusive (neither active nor inactive); the mix of calls is not that of the screen. No stated cut-off is given here; in the data, active means max dye-equivalent concentration above about 10 nM; inconclusive means between about 1.1 nM and that limit; inactive means weaker than that.

assay: qHTS Assay for Spectroscopic Profiling in Texas Red Spectral Region; conditions: Compound fluorescence, Texas Red channel, 547/618 nm; hits give high values
Outline: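 Fluorescence at ex 547/em 618 nm, normalized against an on-plate Texas Red standard series to give dye-equivalent concentration per compound concentration. Buffer 100 mM Tris, pH 8.0; 15 min RT incubation before CCD imaging.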

Structure (SMILES)	max dye-equivalent concentration
Cc1c(N2C(=O)C(C)SC23C(=O)Nc2ccccc23)c(=O)n(-c2ccccc2)n1C (stereo not drawn)	inconclusive: 1.1 nM
O=C1CC2(CCCCC2)Oc2ccc(OCC(=O)N3CCOCC3)cc21	inactive
COCCn1c(=O)c(-c2ccccc2)nc2cnc(OC)nc21	inactive
Clc1ccc(SCCCCn2cncn2)cc1	inconclusive: 2 nM
CCOC(=O)C1CCCN(C2CC(=O)N(c3ccc(C)c(C)c3)C2=O)C1 (stereo not drawn)	inconclusive: 1.3 nM
CCOC(=O)c1cnc(SCc2nc(N)nc(Nc3ccc(C)cc3)n2)nc1N	inconclusive: 1.3 nM
O=C(O)C1CC=C(Cl)CC1C(=O)NCc1ccccc1 (stereo not drawn)	inconclusive: 1.6 nM
CC1=C(C#N)C(c2ccoc2)C(C(=O)OCc2ccccc2)=C(N)S1 (stereo not drawn)	inactive
O=C(O)c1cc2cc(Cc3cccnc3)ccc2o1	inactive
CCOc1cc(NC(=O)C2CCCO2)c(OCC)cc1NC(C)=O (stereo not drawn)	inconclusive: 4.1 nM
Cc1ccc(S(=O)(=O)Nc2ccc(Br)cc2/C=N/n2cnnc2)cc1	inconclusive: 1.8 nM
Cc1cc(NC(=O)CCc2ccc(S(=O)(=O)N3CCOCC3)cc2)n(-c2ccccc2)n1	inconclusive: 1.1 nM
COc1ccccc1C(=O)n1nc(-c2ccc(Cl)cc2)nc1N	inconclusive: 2.1 nM
CCOC(=O)c1c(C)nc2ccccn12	inconclusive: 1.8 nM
Cc1ccc(S(=O)(=O)Nc2ccc(-c3nnc(SCC#N)n3C)cc2)cc1	inconclusive: 1.2 nM
CC(C)(C)C1(c2ccccc2)NC(=O)N(CC(=O)N2CCOCC2)C1=O (stereo not drawn)	inconclusive: 1.1 nM
CC(C)Oc1ccc(C2/C(=C(/O)c3ccc(F)cc3)C(=O)C(=O)N2CCCN(C)C)cc1 (stereo not drawn)	inconclusive: 1.3 nM
C=CCn1c(SCC(=O)N2CCN(C(=O)c3ccco3)CC2)nc2sc(CC)cc2c1=O	inconclusive: 2.2 nM
CS(=O)(=O)N1CCc2cc(C(=O)OCC(=O)c3ccccc3)ccc21	inconclusive: 1.7 nM
CC(C)CN(C(=O)COC(=O)CCc1c[nH]c2ccccc12)C1CCS(=O)(=O)C1 (stereo not drawn)	inconclusive: 1.4 nM
CC(=O)c1c(C)[nH]c(C(=O)COC(=O)CNS(=O)(=O)c2ccccc2)c1C	inconclusive: 1.5 nM
C=CCOc1cccc(C2/C(=C(/O)c3ccccc3)C(=O)C(=O)N2CCN2CCOCC2)c1 (stereo not drawn)	inconclusive: 1.2 nM

Structure (SMILES)	max dye-equivalent concentration
CS(=O)(=O)N(Cc1nc2sc3c(c2c(=O)[nH]1)CCCC3)C1CCCCC1	inconclusive: 1.8 nM
Cc1ccc(S(=O)(=O)Cc2ccc(C(=O)NCCCN3CCN(C)CC3)o2)cc1	inconclusive: 1.4 nM
c1ccc(-c2cnc(CSc3nnc4ccccn34)o2)cc1	inconclusive: 2.2 nM
CC(C)C(=O)Nc1cccc(-c2nc3ccccc3o2)c1	inconclusive: 1.3 nM
O=C(O)CCCC[C@@H]1SC[C@H]2NC(=O)N[C@H]12	inactive
COc1ccc(-n2c(SCC(=O)N3CCCC(C)C3)nnc2-c2cccnc2)cc1 (stereo not drawn)	inconclusive: 2.4 nM
CN(c1ccccc1C(=O)O)S(=O)(=O)c1ccc2c3c(cccc13)C(=O)N2	inconclusive: 1.1 nM
CCn1c(SCC(=O)Nc2cc3oc4ccccc4c3cc2OC)nnc1-c1cccs1	inconclusive: 1.1 nM
O=C(CSc1nc2cc(Cl)ccc2o1)c1cccs1	inconclusive: 1.1 nM
CC1(C)Cc2c(sc3c2c(=N)n(Cc2ccco2)c(=O)n3CC(=O)Nc2cccc(Cl)c2)CO1	inconclusive: 1.1 nM
CCOc1cc(-c2c(C)c(CC)nc(N)c2C#N)ccc1O	inconclusive: 1.1 nM
CCN(CC)CCN1C(=O)C(=O)/C(=C(/O)c2ccc(OCC(C)C)cc2)C1c1ccncc1 (stereo not drawn)	inconclusive: 2 nM
CNc1ncnc2ccc(-c3ccccc3C)cc12	inactive
CCn1c(SCC(=O)NCc2ccco2)nc2cccnc21	inconclusive: 1.4 nM
Cc1oc2c(c1C(=O)NCc1ccccc1)CCCC2	inconclusive: 1.3 nM
CN1/C(=C\C(=O)COC(=O)Cn2nnc(-c3ccccc3)n2)C(C)(C)c2ccccc21	active: 22 nM
COc1ccc2[nH]c3ccccc3c2c1	inconclusive: 1.1 nM
COc1ccc(C[N+](C)(C)N)cc1OC	inactive
CNc1oc(Cc2ccccc2)nc1S(=O)(=O)c1ccccc1	inconclusive: 1.4 nM
COC(=O)c1cc(C(=O)OC)cc(S(=O)(=O)Nc2ccc(Cl)c(N)c2)c1	inconclusive: 1.2 nM
COc1ccccc1NC(=O)N1CCCC(c2nc3c(nnn3Cc3ccc(C)cc3)c(=O)[nH]2)C1 (stereo not drawn)	inconclusive: 1.2 nM
Cn1cc(C(=O)c2ccc(Cl)cc2)cc1-c1nc2ccccc2n1C	inconclusive: 1.3 nM

Structure (SMILES)	max dye-equivalent concentration
N#Cc1cccc(-c2nc3cnc(Oc4cccc(Cl)c4)nc3n(C3CC3)c2=O)c1	inactive
Cn1c(SCC(=O)NC2CCCCCC2)nnc1-c1cccs1	inconclusive: 1.4 nM
OCCNCC(O)Cn1ccc2ccccc21 (stereo not drawn)	inconclusive: 1.5 nM
COc1ccccc1NC(=O)N1CCCC1C(=O)Nc1ccc(NC(C)=O)cc1 (stereo not drawn)	inconclusive: 1.2 nM
Cc1[nH]nc2c1C1(CCN(Cc3ccccc3)CC1)C(C#N)=C(N)O2	inconclusive: 1.1 nM
Cc1ccc2c(CN3CCN(CCO)CC3)cc(=O)oc2c1	inconclusive: 1.3 nM
O=C(CC1CCCCC1)NC1CCCC1	inconclusive: 1.5 nM
CCCc1nc2oc3c(NCC4CCCO4)ncnc3c2c2c1COC(C)(C)C2 (stereo not drawn)	inconclusive: 1.6 nM
COc1cccc(C(=O)Nc2ccccc2N2CCCC2)c1	inconclusive: 2.4 nM
O=C(c1ccccc1)c1ccc(N2CCOCC2)c(NC(=O)c2ccco2)c1	inconclusive: 1.3 nM
Cc1cnc(NC(=O)CSc2nnc(-c3ccccc3)o2)s1	inconclusive: 1.4 nM
COc1ccc(C(=O)NC2CCN(C(=O)NC3CCCCC3)CC2)cc1	inconclusive: 1.2 nM
O=c1c2c([nH]c3ccc(Br)cc13)CCCC2	inconclusive: 1.3 nM
CNCC[C@H](Oc1ccccc1C)c1ccccc1	inconclusive: 1.6 nM
Cc1ccc(NC(=O)COC(=O)c2ccn(C)n2)cc1	inconclusive: 1.5 nM
O=C(c1ccc(Cn2c(=O)[nH]c3ccccc3c2=O)cc1)N1CCN(c2ccc(F)cc2)CC1	inconclusive: 1.1 nM
Nc1nc(N)c(N=Nc2ccc(C(=O)O)c(O)c2)c(N)n1	inactive
O=C(CCCn1c(=O)oc2ccccc21)N1CCc2ccccc2C1	inconclusive: 1.2 nM
O=C(O)/C=C\C(=O)Nc1ccc2c(c1)-c1ccccc1C2	inconclusive: 1.7 nM
CCS(=O)(=O)CCSc1nc(C)cc(C)c1C#N	inactive
COc1cc2ncnc(Nc3cccc(Cl)c3)c2cc1OC	inconclusive: 1.1 nM
O=S1(=O)CCC(NS(=O)(=O)c2cccc3cccnc23)C1 (stereo not drawn)	inconclusive: 1.7 nM

Another view of part of the listing above.

| Structure (SMILES) | max dye-equivalent concentration |
| --- | --- |
| CCCc1nc2oc3c(NCC4CCCO4)ncnc3c2c2c1COC(C)(C)C2 (stereo not drawn) | inconclusive: 1.6 nM |
| COc1cccc(C(=O)Nc2ccccc2N2CCCC2)c1 | inconclusive: 2.4 nM |

Remaining list, next part.

Structure (SMILES)	max dye-equivalent concentration
C/C(NC1CCCC1)=C(/C#N)C(N)=O	inconclusive: 1.2 nM
Cc1ccc2[nH]c(=O)c(CN(CCN3CCOCC3)C(=O)Nc3ccc(F)cc3)cc2c1	inconclusive: 1.4 nM
OCCOc1ccc(C2=NCCO2)cc1	inconclusive: 2.6 nM
CS(=O)(=O)N(CC(=O)NCc1ccco1)c1ccc2c(c1)OCO2	inactive
COc1cc(-c2c(C#N)c(N)nc3c2c(C)nn3-c2ccc(C)c(C)c2)cc(OC)c1OC	inconclusive: 1.5 nM
COc1cc2cc(C(c3nnnn3C3CCCC3)N3CCCCC3)c(=O)[nH]c2cc1OC (stereo not drawn)	inconclusive: 1.7 nM
O=C1NCCCC2c3c(cc(Br)c(O)c3Br)OC12N1CCOCC1 (stereo not drawn)	inconclusive: 1.1 nM
CN1CCc2c(sc3c2C(=O)NC(c2ccccn2)N3)C1 (stereo not drawn)	active: 12 nM
CCOC(=O)c1cnc2c(cnn2CC)c1NN=C(C)C	inconclusive: 1.1 nM
CCn1c(SCC(=O)OCC(=O)N2c3ccccc3NC(=O)C2(C)C)nnc1-c1ccco1	inconclusive: 1.1 nM
Cc1nn(-c2ccccc2)c(Oc2ccc(F)cc2)c1/C=N/n1cnnc1	inconclusive: 1.3 nM
Cc1ccc(S(=O)(=O)N2CCN(C(=O)N(C)C)CC2)cc1C	inconclusive: 1.4 nM
COc1ccc(-c2noc(CCC(=O)NCc3cccnc3)n2)cc1OC	inconclusive: 1.1 nM
c1ccc(COn2c(-c3ccccc3)nc3c2CCc2nonc2-3)cc1	inconclusive: 1.1 nM
Fc1cc2ncn(Cc3ccccc3)c2cc1F	inconclusive: 1.5 nM
COC(=O)c1c(N)c(C#N)c2n1CCCCC2	inconclusive: 1.1 nM
CCOC(=O)c1sc(NC(=O)CSc2nnc(-c3ccc(OC)cc3)n2CCOC)nc1C	inconclusive: 1.1 nM
CCN1CC=C2C(C1)C(c1ccc(Cl)s1)C(C#N)=C(N)C2(C#N)C#N (stereo not drawn)	inactive
COc1ccc(Cc2nnc(NS(=O)(=O)Cc3ccccc3)s2)cc1	inconclusive: 3.4 nM
COCCn1c(=NC(=O)CSCC(=O)NC2CCCCC2)sc2cc(OC)ccc21	inconclusive: 1.4 nM
CN(C)c1ccc(-c2nccc(NCCN3CCOCC3)n2)cc1	inactive
Cc1ccc(N(CC(=O)O)S(=O)(=O)c2cccc3nonc23)cc1	inconclusive: 1.2 nM

2 records picked at random from those above, as already listed:
Structure (SMILES)	max dye-equivalent concentration
c1ccc(-c2cnc(CSc3nnc4ccccn34)o2)cc1	inconclusive: 2.2 nM
OCCNCC(O)Cn1ccc2ccccc21 (stereo not drawn)	inconclusive: 1.5 nM

Reprinted from the results shown for reference:
Structure (SMILES)	max dye-equivalent concentration
Cc1ccc(S(=O)(=O)Cc2ccc(C(=O)NCCCN3CCN(C)CC3)o2)cc1	inconclusive: 1.4 nM
c1ccc(-c2cnc(CSc3nnc4ccccn34)o2)cc1	inconclusive: 2.2 nM
